Reference: PubChem BioAssay AID2685 (National Center for Advancing Translational Sciences (NCATS), 2010)
Screen size: about 320,000 compounds; about 2,100 (0.66%) were called active. Inconclusive means that the source gave no clear call. Such entries were picked first, then a sample of the others. Calls come from the whole dose curve; as a rule, active = well fitted inhibition curve with a large enough effect in the signal ratio, with a control signal flat (not every such curve was filed as active); inconclusive = small, poorly fitted or top-dose-only effect, or effect the other way, or a change in a side signal; inactive = flat fitted curve, though single readings scatter; the % refers to the signal ratio. Potencies beside an inconclusive call are fits to weak or partial responses and may not hold up.

assay: qHTS Assay for Lipid Storage Modulators in Drosophila S3 Cells; conditions: BODIPY lipid droplet fluorescence, 18-24 h, cells fed with added oleic acid; lipid storage change, negative = inhibition: at 46.1 µM (top of the series) unless noted
Summary of the method: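 Drosophila S3 cells loaded with oleic acid (400 uM, as added) and compounds at several concentrations; lipid droplets imaged by 488-nm laser-scanning cytometry, 500–530 nm intensity and object ratio to cell channel. Percent activity normalized to 20 uM Triacsin C.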
% is set by controls: 0 for no effect and ±100 for the full control effect; potency is the fitted concentration of half-maximal effect.

Question: For CCCNC1=CC(=O)CC(C)(C)C1, which lipid storage change, negative = inhibition is on record?
Answer: Its lipid storage change, negative = inhibition is inconclusive: -7.01%.

Question: With O=c1c2ccccc2ncn1CCCSc1ccc(Cl)cc1 as the molecule, how does the lipid storage change, negative = inhibition read?
Answer: The lipid storage change, negative = inhibition was inconclusive: 112%.

Question: With COC(=O)C1=C(C)N(CCCC(=O)O)C(=O)NC1c1ccc(-c2ccccc2)cc1 (stereo not drawn) as the molecule, how does the lipid storage change, negative = inhibition read?
Answer: The lipid storage change, negative = inhibition was inconclusive: 6.83%.

Question: For Cc1cc2occ(CC(=O)N(C)CC(=O)Nc3ccccc3Cl)c2cc1C, which lipid storage change, negative = inhibition is on record?
Answer: Its lipid storage change, negative = inhibition is inconclusive: 35.7%.

Question: Which lipid storage change, negative = inhibition does the source give for CC(=O)Nc1ccc(S(=O)(=O)Nc2cccc(-n3c(C)nc4ccccc4c3=O)c2)cc1 here?
Answer: The lipid storage change, negative = inhibition was inconclusive: 25.6%.

Question: Which lipid storage change, negative = inhibition does the source give for CC(=O)Nc1ccc2c(c1)C(=O)c1ccccc1C2=O here?
Answer: The lipid storage change, negative = inhibition was inconclusive: -25.8%.

Question: With CC(=O)c1cccc(NC(=O)N2CCc3ccccc3C2)c1 as the molecule, how does the lipid storage change, negative = inhibition read?
Answer: The lipid storage change, negative = inhibition was inconclusive: 15.3%.

Question: Which lipid storage change, negative = inhibition does the source give for CCOC(=O)Cc1c(C)[nH]n(-c2ccccc2)c1=O here?
Answer: Its lipid storage change, negative = inhibition is inconclusive: -20.8%.

Question: Which lipid storage change, negative = inhibition does the source give for O=C1NC(=S)N/C1=C/c1ccc(-c2c(Br)cc([N+](=O)[O-])cc2Br)o1 here?
Answer: The lipid storage change, negative = inhibition was inconclusive: -28.6%.

Question: Which Potency does the source give for CCOC(=O)N1CCN(C(=O)CS(=O)(=O)c2cn(Cc3ccccc3Cl)c3ccccc23)CC1 here?
Answer: Its Potency is inconclusive: 16.4 µM [activator, single point].

Question: For CC(OC(=O)c1ccc2c(c1)S(=O)(=O)c1ccccc1C2=O)C(N)=O (stereo not drawn), which Potency is on record?
Answer: Its Potency is inconclusive: 29.1 µM [activator, single point].

Question: For COc1ccc(-n2nc3c(c2NC(=O)CCCl)CSC3)cc1, which lipid storage change, negative = inhibition is on record?
Answer: Its lipid storage change, negative = inhibition is “inactive”.

Question: For CN(C)c1cccc2c1c(NC(=O)c1ccc(Cl)cc1)nn2C, which lipid storage change, negative = inhibition is on record?
Answer: Its lipid storage change, negative = inhibition is inconclusive: 8.25%.

Question: For COc1cccc(C(=O)NC(=S)Nc2ccccc2N2CCOCC2)c1, which lipid storage change, negative = inhibition is on record?
Answer: The lipid storage change, negative = inhibition was inconclusive: -23.1%.

Question: For Cc1cc(C)c2nc(NNC(=O)c3cc(=O)c4ccccc4o3)sc2c1, which lipid storage change, negative = inhibition is on record?
Answer: Its lipid storage change, negative = inhibition is inconclusive: -44.6%.

Question: Which Potency does the source give for COc1ccc(N(C(=O)c2snc(C(N)=O)c2N)C(C(=O)NC2CCCC2)c2cc(OC)ccc2OC)cc1 (stereo not drawn) here?
Answer: Its Potency is inconclusive: 0.366 µM [activator, partial curve, poor fit].

Question: For CCOc1ccccc1OCCOCCN1CCN(Cc2ccccc2)CC1, which lipid storage change, negative = inhibition is on record?
Answer: Its lipid storage change, negative = inhibition is inconclusive: -24.4%.

Question: Which lipid storage change, negative = inhibition does the source give for COc1ccc(C(=O)Nc2cc(C)nn2-c2nc3ccccc3[nH]2)c(OC)c1 here?
Answer: Its lipid storage change, negative = inhibition is inconclusive: -9.01%.

Question: With O=C(NCCc1ccc(F)cc1)Nc1ccccc1Cl as the molecule, how does the Potency read?
Answer: Its Potency is inconclusive: 1.64 µM [activator, partial curve, poor fit].

Question: For CCCCNC(=O)c1nn2c(C(F)(F)F)cc(-c3ccc(OC)cc3)nc2c1Br, which lipid storage change, negative = inhibition is on record?
Answer: Its lipid storage change, negative = inhibition is inconclusive: -100%.

Question: For CCC(C(=O)NCc1ccc(F)cc1)n1nc(C)n2c(cc3occc32)c1=O (stereo not drawn), which lipid storage change, negative = inhibition is on record?
Answer: Its lipid storage change, negative = inhibition is inconclusive: 128%.

Question: Which lipid storage change, negative = inhibition does the source give for Cc1ccc(CN2CCSc3ccc(C(=O)NCc4cccnc4)cc32)cc1 here?
Answer: The lipid storage change, negative = inhibition was inconclusive: -12%.

Question: Which lipid storage change, negative = inhibition does the source give for O=C(OCc1ccc(Br)cc1)c1cccnc1Cl here?
Answer: Its lipid storage change, negative = inhibition is inconclusive: -149%.

Question: With CCC(CC)C(=O)Nc1cccc(-c2ccc3nncn3n2)c1 as the molecule, how does the lipid storage change, negative = inhibition read?
Answer: Its lipid storage change, negative = inhibition is inconclusive: -59.1%.

Question: For COC(=O)CNC(=O)c1ccc(NS(=O)(=O)c2cc([N+](=O)[O-])ccc2Cl)cc1, which lipid storage change, negative = inhibition is on record?
Answer: The lipid storage change, negative = inhibition was inconclusive: -16.1%.

Question: Which Potency does the source give for CC(=O)c1c(C)[nH]c(C(=O)Nc2ccc(C)c(S(=O)(=O)Nc3ccc(C)cc3C)c2)c1C here?
Answer: Its Potency is inconclusive: 29.1 µM [activator, single point].

Question: For NS(=O)(=O)c1ccc(CCNC(=O)COC(=O)c2cc([N+](=O)[O-])ccc2N2CCOCC2)cc1, which lipid storage change, negative = inhibition is on record?
Answer: Its lipid storage change, negative = inhibition is “inconclusive”.

Question: For CCc1ccc(/C=C2/C(=O)N(c3ccccc3)C(=S)N2CC(=O)OC)s1, which Potency is on record?
Answer: The Potency was inconclusive: 18.4 µM [activator, single point].

Question: With O=C(Nc1ccnn1C1CCN(C(=O)c2cccc(Cl)c2)CC1)C1CCOC1 (stereo not drawn) as the molecule, how does the Potency read?
Answer: The Potency was inconclusive: 0.82 µM [activator, single point].

Question: For CC1CCc2nc3sc4c(c3c(N)c2C1)CCCC4 (stereo not drawn), which lipid storage change, negative = inhibition is on record?
Answer: The lipid storage change, negative = inhibition was inconclusive: 14%.

Question: Which Potency does the source give for COc1cc(/C(C)=N/NC(=O)CSc2nncn2C)ccc1OCc1ccccc1Cl here?
Answer: Its Potency is inconclusive: 0.0046 µM [activator, full curve, poor fit].

Question: With COc1ccc(N(CCC(=O)O)S(=O)(=O)c2ccc(C)cc2C)cc1 as the molecule, how does the lipid storage change, negative = inhibition read?
Answer: Its lipid storage change, negative = inhibition is inconclusive: -80.6%.

Question: Which lipid storage change, negative = inhibition does the source give for Cc1cccc(C)c1NC(=O)c1cccc2c1C(=O)N(C1CCCCC1)C2 here?
Answer: The lipid storage change, negative = inhibition was inconclusive: 78.5%.

Question: Which lipid storage change, negative = inhibition does the source give for CCOC(=O)c1c(C)[nH]c(C)c1S(=O)(=O)NCC(=O)Nc1ccccn1 here?
Answer: The lipid storage change, negative = inhibition was inconclusive: 21.4%.

Question: With COc1ccccc1-n1cnnc1SC1CCOC1=O (stereo not drawn) as the molecule, how does the Potency read?
Answer: Its Potency is inconclusive: 6.51 µM [falling, single point].

Question: Which lipid storage change, negative = inhibition does the source give for CN(C(=O)C1CCCO1)c1nnc(-c2ccccn2)s1 (stereo not drawn) here?
Answer: The lipid storage change, negative = inhibition was inconclusive: 20.7%.

Question: For COCCn1c(SCc2c(F)cccc2Cl)nc2c1c(=O)[nH]c(=O)n2C, which lipid storage change, negative = inhibition is on record?
Answer: The lipid storage change, negative = inhibition was inconclusive: 70.1%.

Question: Which lipid storage change, negative = inhibition does the source give for CC(C)C(C(=O)O)N1CCS(=O)(=O)CC1 (stereo not drawn) here?
Answer: The lipid storage change, negative = inhibition was inconclusive: -52.9%.

Question: For Cc1cccc(C2=NOC(=O)/C2=C\c2ccccc2F)c1, which Potency is on record?
Answer: Its Potency is inconclusive: 7.31 µM [activator, partial curve, poor fit].

Question: For CCN(CC)S(=O)(=O)c1ccc(OC)c(-n2cnnn2)c1, which Potency is on record?
Answer: The Potency was inconclusive: 0.13 µM [falling, full curve, poor fit].

Question: Which lipid storage change, negative = inhibition does the source give for O=C(O)c1ccc(N=Cc2nc(-c3ccco3)oc2O)cc1 here?
Answer: The lipid storage change, negative = inhibition was inconclusive: -4.07%.

Question: For CCCCn1c(=N)n(CC(O)COc2cccc(C)c2)c2ccccc21 (stereo not drawn), which Potency is on record?
Answer: Its Potency is inconclusive: 29.1 µM [falling, single point].

Question: Which lipid storage change, negative = inhibition does the source give for CCOC(=O)Nc1ccc2c(c1)N(CCCN(C)C)c1ccccc1CC2 here?
Answer: The lipid storage change, negative = inhibition was inconclusive: 65.4%.

Question: For CCOc1ccc(C(C(=O)NCC2CCCO2)N(Cc2cccc(OC)c2)C(=O)c2snc(C(N)=O)c2N)cc1 (stereo not drawn), which Potency is on record?
Answer: The Potency was inconclusive: 0.0046 µM [activator, full curve, poor fit].

Question: For O=C(NCCN1CCOCC1)c1ccc(Cl)c(S(=O)(=O)N2CCCC2)c1, which lipid storage change, negative = inhibition is on record?
Answer: Its lipid storage change, negative = inhibition is inconclusive: -22.3%.

Question: Which Potency does the source give for O=C(NC1CCCCC1)c1cc(S(=O)(=O)N2CCCC2)ccc1Cl here?
Answer: Its Potency is inconclusive: 1.84 µM [activator, single point].

Question: For COc1cc(/C=N/Nc2ccc(C(F)(F)F)cn2)cc(OC)c1O, which Potency is on record?
Answer: The Potency was inconclusive: 29.1 µM [activator, single point].

Question: With CCOC(=O)CN1N=C(/C=C/c2ccc(OC)cc2)CCC1=O as the molecule, how does the lipid storage change, negative = inhibition read?
Answer: Its lipid storage change, negative = inhibition is inconclusive: -0.681%.
